Test [1] concerns the target AGO2 NanoLuc (UniProt Q8CJG0). Kind of test: FRET or BRET; NanoBRET in HL-1 cells transfected with AGO2 NanoLuc and IPO8-Halo, in presence of IWR-1; 100 nM NanoBRET 618 Ligand, signals detected 6 hours after treatment. (In BRET a luciferase serves as donor, and the signal depends on an acceptor being close.)
Test [2] deals with AGO2 NanoLuc (UniProt Q8CJG0). The experiment in a line: FRET or BRET; NanoBRET in HL-1 cells transfected with AGO2 NanoLuc and IPO8-Halo, without IWR-1; 100 nM NanoBRET 618 Ligand, signals detected 6 hours after treatment.

Amino acid sequences for entries named in this document (tags omitted).
UniProt Q8CJG0: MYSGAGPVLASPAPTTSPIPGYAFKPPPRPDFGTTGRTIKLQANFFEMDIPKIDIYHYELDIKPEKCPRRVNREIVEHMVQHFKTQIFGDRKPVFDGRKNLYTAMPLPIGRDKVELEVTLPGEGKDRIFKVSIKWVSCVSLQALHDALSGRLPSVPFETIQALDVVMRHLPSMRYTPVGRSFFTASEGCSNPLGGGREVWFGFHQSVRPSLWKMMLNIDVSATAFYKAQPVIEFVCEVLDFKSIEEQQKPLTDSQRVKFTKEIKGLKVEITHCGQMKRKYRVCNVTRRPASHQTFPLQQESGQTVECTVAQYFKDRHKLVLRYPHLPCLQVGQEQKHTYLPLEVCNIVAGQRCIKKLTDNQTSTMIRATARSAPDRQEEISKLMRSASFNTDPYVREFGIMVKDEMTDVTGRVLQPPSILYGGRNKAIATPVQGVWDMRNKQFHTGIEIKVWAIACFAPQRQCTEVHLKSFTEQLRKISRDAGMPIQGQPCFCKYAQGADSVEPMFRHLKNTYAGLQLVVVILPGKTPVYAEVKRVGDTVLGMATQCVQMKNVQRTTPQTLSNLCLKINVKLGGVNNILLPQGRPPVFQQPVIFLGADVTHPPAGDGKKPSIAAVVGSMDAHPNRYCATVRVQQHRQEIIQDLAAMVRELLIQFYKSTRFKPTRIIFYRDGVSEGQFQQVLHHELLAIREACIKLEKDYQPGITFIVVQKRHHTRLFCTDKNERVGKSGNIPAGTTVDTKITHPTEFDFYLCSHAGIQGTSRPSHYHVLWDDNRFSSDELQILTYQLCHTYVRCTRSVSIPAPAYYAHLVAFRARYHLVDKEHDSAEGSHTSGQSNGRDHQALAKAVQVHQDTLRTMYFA
UniProt Q7TMY7: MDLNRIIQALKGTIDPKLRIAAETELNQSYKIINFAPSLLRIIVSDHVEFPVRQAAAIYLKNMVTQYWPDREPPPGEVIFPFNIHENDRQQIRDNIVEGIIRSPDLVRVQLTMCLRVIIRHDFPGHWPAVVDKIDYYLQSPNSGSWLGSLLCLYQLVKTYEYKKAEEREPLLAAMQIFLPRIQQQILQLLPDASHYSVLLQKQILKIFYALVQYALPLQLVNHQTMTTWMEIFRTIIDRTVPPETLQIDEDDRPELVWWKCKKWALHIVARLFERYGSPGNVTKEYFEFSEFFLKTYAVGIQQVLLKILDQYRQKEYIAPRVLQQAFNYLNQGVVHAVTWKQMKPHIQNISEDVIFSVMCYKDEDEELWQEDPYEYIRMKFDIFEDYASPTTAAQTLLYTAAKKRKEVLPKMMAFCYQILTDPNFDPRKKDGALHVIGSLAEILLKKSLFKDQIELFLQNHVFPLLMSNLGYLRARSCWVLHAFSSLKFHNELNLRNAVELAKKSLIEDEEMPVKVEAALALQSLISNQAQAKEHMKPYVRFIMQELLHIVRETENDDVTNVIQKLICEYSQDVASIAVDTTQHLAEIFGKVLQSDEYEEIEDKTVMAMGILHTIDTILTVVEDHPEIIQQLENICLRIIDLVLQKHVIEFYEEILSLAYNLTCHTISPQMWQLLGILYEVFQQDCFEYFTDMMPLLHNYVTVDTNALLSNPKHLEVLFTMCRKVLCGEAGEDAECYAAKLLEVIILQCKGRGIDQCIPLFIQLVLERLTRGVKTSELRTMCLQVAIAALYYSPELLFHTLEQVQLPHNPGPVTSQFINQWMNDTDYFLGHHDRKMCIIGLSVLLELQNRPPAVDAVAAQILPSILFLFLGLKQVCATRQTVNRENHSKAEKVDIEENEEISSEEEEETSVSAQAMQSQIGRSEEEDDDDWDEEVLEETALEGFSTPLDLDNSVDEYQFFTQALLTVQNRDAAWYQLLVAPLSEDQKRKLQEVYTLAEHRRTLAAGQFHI

No constants are given. Whether binding was seen depends on the method and setting. Binding seen in cells or lysates may run through a third protein. Some binding calls cover weakened binding; strength is not graded here.

For the substance IPO8-Halo (from UniProt Q7TMY7 1-1010), the binding entry in test [1] is on record as “binds”; in test [2], “no binding (condition: cells without IWR-1)”.

The record behind these values is paper PMC6597717.
